These are yes or no findings as the source states them, for the method shown. In cells and extracts the contact can be indirect. A yes stands for co-enrichment or nearness to the bait. Other partners may have been found.
Molecular target: FLAG-BirA-RREB1 (RAS-responsive element binding protein-1) (UniProt Q92766)
Experiment: proximity labelling; BioID with FLAG-BirA-RREB1 as bait in HEK293-TREx flp-in cells; 1 μg/ml tetracycline and 50 μM biotin for 24 h; RIPA lysis, Streptavidin-Sepharose capture, mass spectrometry; 1% FDR

Protein sequences, listed by entry. Tags and fused reporters are not part of them.
UniProt Q92766: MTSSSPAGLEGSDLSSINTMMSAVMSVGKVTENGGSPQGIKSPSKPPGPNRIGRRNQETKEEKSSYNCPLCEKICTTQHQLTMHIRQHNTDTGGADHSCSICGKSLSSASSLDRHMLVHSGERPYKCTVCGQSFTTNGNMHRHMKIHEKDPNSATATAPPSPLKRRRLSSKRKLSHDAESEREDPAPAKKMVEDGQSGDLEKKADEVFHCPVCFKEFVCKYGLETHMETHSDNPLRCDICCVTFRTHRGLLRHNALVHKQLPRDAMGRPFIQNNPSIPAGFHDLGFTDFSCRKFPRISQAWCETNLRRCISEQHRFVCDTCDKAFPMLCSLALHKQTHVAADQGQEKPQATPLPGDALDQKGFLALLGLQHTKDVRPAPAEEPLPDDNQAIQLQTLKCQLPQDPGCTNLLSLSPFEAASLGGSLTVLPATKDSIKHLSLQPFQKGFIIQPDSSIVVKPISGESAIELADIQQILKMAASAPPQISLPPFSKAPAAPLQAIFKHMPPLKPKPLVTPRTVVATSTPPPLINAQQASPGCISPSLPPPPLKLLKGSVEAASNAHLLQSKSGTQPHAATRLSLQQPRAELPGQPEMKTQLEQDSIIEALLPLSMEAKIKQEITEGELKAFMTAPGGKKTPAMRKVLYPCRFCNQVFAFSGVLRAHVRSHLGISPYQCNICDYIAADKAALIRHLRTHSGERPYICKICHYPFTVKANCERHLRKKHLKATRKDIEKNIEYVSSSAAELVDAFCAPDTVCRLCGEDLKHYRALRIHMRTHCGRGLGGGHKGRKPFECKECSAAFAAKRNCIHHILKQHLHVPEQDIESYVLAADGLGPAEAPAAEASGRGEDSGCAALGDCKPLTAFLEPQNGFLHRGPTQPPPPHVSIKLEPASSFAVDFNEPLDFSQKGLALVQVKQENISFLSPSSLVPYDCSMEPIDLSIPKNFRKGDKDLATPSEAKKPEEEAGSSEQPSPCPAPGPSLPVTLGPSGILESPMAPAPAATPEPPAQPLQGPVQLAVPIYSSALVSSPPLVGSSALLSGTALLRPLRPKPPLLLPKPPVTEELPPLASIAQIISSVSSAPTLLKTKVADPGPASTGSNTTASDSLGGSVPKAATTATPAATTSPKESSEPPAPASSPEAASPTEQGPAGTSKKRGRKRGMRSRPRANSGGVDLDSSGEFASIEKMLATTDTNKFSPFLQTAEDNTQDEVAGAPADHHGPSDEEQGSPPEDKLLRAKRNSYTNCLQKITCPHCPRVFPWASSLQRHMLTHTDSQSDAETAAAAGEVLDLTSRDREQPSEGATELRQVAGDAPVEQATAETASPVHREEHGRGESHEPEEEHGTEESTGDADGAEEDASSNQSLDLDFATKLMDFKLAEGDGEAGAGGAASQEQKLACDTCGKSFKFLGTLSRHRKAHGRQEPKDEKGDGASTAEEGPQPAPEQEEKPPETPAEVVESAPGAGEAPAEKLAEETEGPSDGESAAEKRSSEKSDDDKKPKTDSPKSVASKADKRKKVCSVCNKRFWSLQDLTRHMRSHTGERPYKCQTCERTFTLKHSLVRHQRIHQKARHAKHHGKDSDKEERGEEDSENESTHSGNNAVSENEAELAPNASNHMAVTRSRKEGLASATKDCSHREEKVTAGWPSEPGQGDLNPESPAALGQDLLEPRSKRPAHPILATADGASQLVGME
UniProt Q13547: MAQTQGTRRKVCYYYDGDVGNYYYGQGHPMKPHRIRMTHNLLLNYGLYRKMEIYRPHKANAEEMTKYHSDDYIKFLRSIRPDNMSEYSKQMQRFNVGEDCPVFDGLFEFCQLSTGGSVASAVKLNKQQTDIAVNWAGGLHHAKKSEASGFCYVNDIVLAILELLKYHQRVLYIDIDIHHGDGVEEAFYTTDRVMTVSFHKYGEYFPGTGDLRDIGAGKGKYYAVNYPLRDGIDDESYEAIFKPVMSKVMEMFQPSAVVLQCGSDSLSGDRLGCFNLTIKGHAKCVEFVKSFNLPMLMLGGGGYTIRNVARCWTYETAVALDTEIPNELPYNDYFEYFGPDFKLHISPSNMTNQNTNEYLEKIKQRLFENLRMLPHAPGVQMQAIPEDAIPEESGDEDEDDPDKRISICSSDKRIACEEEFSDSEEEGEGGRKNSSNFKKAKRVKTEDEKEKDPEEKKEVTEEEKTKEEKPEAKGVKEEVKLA

binding: binds
Substance: endogenous HDAC1 (from UniProt Q13547 1-482)
